Results on one compound are retold here after article PMC8185074, “Anchor extension: a structure-guided approach to design cyclic peptides targeting enzyme active sites” (Nature Communications, 2021).

Amino acid sequences for entries named in this document (tags omitted).
UniProt Q92769, whole entry: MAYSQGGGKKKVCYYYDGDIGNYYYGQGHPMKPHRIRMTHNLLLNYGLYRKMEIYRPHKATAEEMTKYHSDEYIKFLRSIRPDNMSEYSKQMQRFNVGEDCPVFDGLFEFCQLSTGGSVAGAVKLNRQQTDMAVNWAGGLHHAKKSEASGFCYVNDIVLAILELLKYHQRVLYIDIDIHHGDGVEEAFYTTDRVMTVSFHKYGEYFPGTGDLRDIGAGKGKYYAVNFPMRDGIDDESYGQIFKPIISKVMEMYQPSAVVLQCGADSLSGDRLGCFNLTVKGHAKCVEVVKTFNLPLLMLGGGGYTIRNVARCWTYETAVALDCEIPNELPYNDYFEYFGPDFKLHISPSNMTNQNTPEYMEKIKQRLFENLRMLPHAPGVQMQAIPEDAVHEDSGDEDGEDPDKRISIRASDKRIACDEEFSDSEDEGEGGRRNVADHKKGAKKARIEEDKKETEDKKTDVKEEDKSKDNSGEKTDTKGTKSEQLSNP

In this experiment the target is T1, HDAC2 (Homo sapiens, UniProt Q92769).
T1 construct: purchased Reaction Biology Corporation (assay run by the CRO)
The experiment in a line: Initial HDAC2 IC50 estimate (BPS Biosciences HDAC fluorogenic assay kit). The class given is biochemical. Particulars: HDAC2 activity (initial activity), Supplementary Dataset 2. The method, then:
Initial IC50 values were estimated using HDAC fluorogenic assay kits from BPS Biosciences (HDAC2, HDAC4, and HDAC6) following the protocol described in the kit. All the measures were performed in duplicates or triplicates. These measurements were done either on full range of concentrations (1:10 dilution from 1 µM to 100 pM) or on two concentrations only (20 nM and 200 nM) as an estimate of the range. […] Source Data are provided as a Source Data file.

As for `CC(C)C[C@@H]1NC(=O)[C@H](CCCCCS)NC(=O)[C@@H](C)NC(=O)[C@H](CCCNC(=N)N)NC(=O)[C@H](CC(=O)O)NC(=O)[C@@H]2CCCN2C(=O)[C@@H]2CCCN2C(=O)[C@H](CO)NC(=O)[C@@H](CCC(=O)O)NC(=O)[C@@H](CC(=O)O)NC(=O)[C@H](CCCN)NC(=O)[C@@H](CC(N)=O)NC(=O)[C@H](C(C)C)NC1=O` [des1.4.0, SHA-Leu-Val-dAsn-Orn-dAsp-dGlu-Ser-Pro-Pro-Asp-Arg-dAla], the IC50 is 100 µM.
